From US10828368B2, “Therapeutic treatments using centhaquin” (MIDWESTERN UNIVERSITY, priority 2009, dated 2020)

Tested on: ET-1
Experiment: ET-1 level in rat plasma (enzyme immunometric assay)
Type: in vivo
Settings: for change in plasma ET-1 levels: clonidine or centhaquin treatment

SMILES | plasma ET-1 level (1 hour after clonidine 10 μg/kg) | plasma ET-1 level (after clonidine 90 μg/kg) | change in plasma ET-1 levels | plasma ET-1 level (1 hour after centhaquin 0.15 mg/kg) | plasma ET-1 level (after centhaquin 0.45 mg/kg) | change in plasma ET-1 levels (listed as centhaquin)
Clc1cccc(Cl)c1NC1=NCCN1 [Clonidine, N-(2,6-dichlorophenyl)-4,5-dihydro-1H-imidazol-2-amine] | 13.45 ± 0.68 pg/mL | 11.31 ± 0.92 pg/mL | did not produce any change | – | – | –
Cc1cccc(N2CCN(CCc3ccc4ccccc4n3)CC2)c1 [Centhaquin] | – | – | Neither plasma ET-1 levels were altered | 10.39 ± 1.75 pg/mL | 11.67 ± 1.41 pg/mL | did not produce any change
